Reference: the supplement of paper PMC3334620
Whole data set: some 33,000 sequences, median “E-score (-0.5 to 0.5)” near -8e-05, cut for the highest 2% near 0.23. The list shows a part of the results.

Molecular target: T1, Nrg2 (UniProt P38082)
T1 sequence: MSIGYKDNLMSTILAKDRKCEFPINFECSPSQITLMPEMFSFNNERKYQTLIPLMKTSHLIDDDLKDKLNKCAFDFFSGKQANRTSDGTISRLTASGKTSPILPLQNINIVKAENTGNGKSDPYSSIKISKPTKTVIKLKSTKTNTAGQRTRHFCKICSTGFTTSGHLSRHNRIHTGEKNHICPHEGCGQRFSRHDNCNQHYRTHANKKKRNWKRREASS
Assay: PBM E-score (8-mer binding enrichment) (E-score (-0.5 to 0.5)); higher = stronger / more preferred TF binding
Settings: protein concentration: 100 nM; construct: GST-full length
In short: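 Universal all-10-mer Agilent arrays, fresh or stripped once, were converted to double-stranded form by primer extension. GST-tagged yeast transcription factors from PURExpress in vitro transcription/translation, full-length or DNA-binding domain only, were applied at about 100-200 nM and detected with fluorescent anti-GST. After masliner normalisation, the Universal PBM Analysis Suite scored each ungapped eight-base word together with its reverse complement by E-score.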

Row | Sequence | PBM E-score
1 | ATTTAAAT | 0.213
2 | CAAGCATG | 0.00246
3 | AATCGGGC | -0.127
4 | CAATTCAA | 0.063
5 | ACCTTAAT | 0.0828
6 | CTAACGGC | -0.124
7 | CGACGGGC | 0.0686
8 | CATTCGCG | 0.212
9 | ATTTAAAG | 0.14
10 | AATAAGGA | 0.0295
11 | ACTTCACT | 0.0973
12 | AGTTGGCA | 0.1
13 | GTGATAGA | -0.099
14 | GCAATGAA | 0.183
15 | GCGGAAGC | -0.114
16 | CTGGGACC | -0.154
17 | CCGCGATC | 0.193
18 | ACTGTGAC | 0.153
19 | GGCAAGCA | -0.089
20 | AACCATAG | -0.0803
21 | CTGCTCAA | -0.0801
22 | CATTCCAC | 0.0538
23 | GGCTTAGA | -0.18
24 | AACTCCAG | -0.157
25 | CTTAGTTA | 0.0769

Row | Sequence | PBM E-score
26 | ACAGTCGG | 0.0105
27 | ATCCAAGG | 0.0536
28 | GGATGACA | 0.184
29 | AGTCCTAA | -0.197
30 | TAACACGA | 0.121
31 | TGGACTAA | -0.00284
32 | AGCAAAAA | -0.00398
33 | ACACACGT | -0.123
34 | ACGTAATC | -0.00194
35 | CTTCCGTA | 0.021
36 | CAATGTCA | 0.0853
37 | ACTATCGG | 0.117
38 | TCACGGCA | 0.0508
39 | CCGAGGCG | -0.0306
40 | ACCCCTGA | 0.297
41 | AACCCCGG | 0.0231
42 | ATGGATTC | 0.12
43 | CCACATCA | 0.051
44 | ACTCTGTG | 0.139
45 | AAAAAAGT | -0.0844
46 | CTGTAACA | -0.17
47 | AATTGAGT | 0.245
48 | CGGTGCCC | -0.0794
49 | AAGGTCAT | -0.0674
50 | CAGATCGC | 0.0885

Row | Sequence | PBM E-score
51 | GGGTCACC | -0.261
52 | ATATCCCC | 0.125
53 | AGCGGGAG | -0.0835
54 | AGGGCTAC | -0.156
55 | ATGGGTCC | 0.0519
56 | AGCAGCTC | -0.0406
57 | CTTGGTCA | 0.138
58 | GCACGCTA | -0.134
59 | GCGGAAGA | 0.104
60 | CGCTCATC | -0.0595
61 | ATTAGGTG | -0.0449
62 | ACAGCTAA | -0.0719
63 | ACCTGGTA | -0.25
64 | GAAAAGCC | 0.0239
65 | ATCATACA | 0.0993
66 | ATCATTAG | 0.155
67 | GAACAAGC | 0.0576
68 | CGCGTGTC | 0.084
69 | TATGGGCA | 0.0362
70 | GCGGCCCC | -0.182
71 | TGTTTAAA | 0.0709
72 | AGGTCAGG | 0.0559
73 | ATCTGGAC | -0.108
74 | ATTTTAGC | -0.0155
75 | GGATTTCA | 0.0791

Row | Sequence | PBM E-score
76 | CACCTGTC | 0.0208
77 | AGCACTCC | -0.0037
78 | GGTATTCA | 0.151
79 | GTCTTATA | -0.0242
80 | ACAGGGCA | 0.195
81 | CAGATAAG | -0.181
82 | GTCCCGCA | -0.142
83 | GCGCTGCA | 0.11
84 | CTGGAACA | 0.147
85 | CGCGCTGC | 0.0564
86 | CCCGCTGC | -0.13
87 | AGTCACTC | 0.0207
88 | AGTTGATA | 0.0603
89 | CTGAACAG | 0.0872
90 | GACTCACA | 0.0103
91 | CTCGATCA | 0.0432
92 | ACGCGAAA | 0.242
93 | ATCTAGTC | 0.0247
94 | CGTTATGA | -0.026
95 | CGTCCTCC | -0.0951
96 | AGCTAAAC | 0.0638
97 | AAACTTAC | 0.0264
98 | AAAACTGT | 0.163
99 | CTGACGAA | 0.208
100 | AGAGTCGA | -0.0481

Row | Sequence | PBM E-score
101 | GACGCTAA | -0.148
102 | GCACTGCA | 0.062
103 | CCCCACCA | 0.104
104 | ATGGGATC | -0.0552
105 | ACGGTCCC | -0.00846
106 | AGCAAACC | 0.168
107 | CGGTCACG | -0.162
108 | GCCGGCTA | -0.145
109 | TGCTCACA | -0.00909
110 | AGTGTTTC | -0.00327
111 | AGTTGAAC | -0.0293
112 | AAGAATAC | 0.0535
113 | ATACTCGG | 0.139
114 | ACGAGGCG | 0.139
115 | GACAATTA | 0.139
116 | CGGAGTAG | -0.0833
117 | CCGAGGAG | -0.201
118 | AGATAGCT | -0.00288
119 | ACGAACAA | 0.124
120 | AATTAGGG | 0.00357
121 | ACTGTGTC | 0.012
122 | CGGGGACG | -0.0177
123 | CACGCACA | 0.149
124 | GCCACACA | 0.0223
125 | GAAGAATA | -0.163

As entered above.
For PBM E-score, GACAATTA is entered as 0.139
For PBM E-score, ATACTCGG is entered as 0.139

Additional results follow.

Row | Sequence | PBM E-score
126 | AGTGTAAC | -0.00932
127 | ACAATCAC | 0.0749
128 | AGGGAGCC | -0.3
129 | CAATGGTA | -0.0105
130 | CTGGCTAA | -0.0584
131 | GCAGGCGC | 0.0429
132 | GCGCACGC | -0.0951
133 | ATTCGAAC | 0.155
134 | GTCGGGGA | 0.0523
135 | GACTCTGA | 0.0315
136 | CGCCCCCG | -0.307
137 | ACTTACGC | -0.117
138 | TGGATGAA | 0.0685
139 | AAGGCCCC | -0.1
140 | GCGAGGCC | -0.0319
141 | ACCAACCG | -0.0193
142 | GACCAGAA | 0.0774
143 | GGGCCTTA | -0.0158
144 | ACGAATAA | 0.186
145 | GCCGGGCC | -0.237
146 | TCCTTGCA | -0.0897
147 | AGCCCCCA | -0.348
148 | GTTTCGAA | 0.0673
149 | AGGTCTCG | -0.205
150 | GCAGAACA | 0.152

Nothing new here: an excerpt of the list.
Row | Sequence | PBM E-score
143 | GGGCCTTA | -0.0158
144 | ACGAATAA | 0.186
145 | GCCGGGCC | -0.237
146 | TCCTTGCA | -0.0897
147 | AGCCCCCA | -0.348
148 | GTTTCGAA | 0.0673
149 | AGGTCTCG | -0.205

Additional results

Row | Sequence | PBM E-score
151 | GTACGAAC | 0.127
152 | AAATGATT | 0.214
153 | AGATATCC | 0.209
154 | ATGTCAGA | -0.107
155 | AGCGAACA | 0.0707
156 | ACGATCGC | 0.132
157 | TCCGTGAA | -0.0299
158 | CTACTGGA | -0.0857
159 | ACCCCCTA | -0.391
160 | CACTTGAG | -0.111
161 | GTAAAGGA | -0.115
162 | AGGGACAA | 0.228
163 | TAAGAGCA | 0.0463
164 | CCAAGGCC | -0.0751
165 | ATGAGTGG | -0.00554
166 | GCTTAGAC | 0.0132
167 | GCGAATCA | 0.187
168 | CCCCTGGA | 0.0369
169 | ACGCGCAT | 0.098
170 | CAATAAAG | 0.0476
171 | CACGAACA | 0.071
172 | CATGTATA | -0.0179
